From publication PMC5069405
These are yes or no findings as the source states them, for the method shown. In cells and extracts the contact can be indirect. Some binding calls cover weakened binding; strength is not graded here.

Amino acid sequences for entries named in this document (tags omitted).
UniProt P46937: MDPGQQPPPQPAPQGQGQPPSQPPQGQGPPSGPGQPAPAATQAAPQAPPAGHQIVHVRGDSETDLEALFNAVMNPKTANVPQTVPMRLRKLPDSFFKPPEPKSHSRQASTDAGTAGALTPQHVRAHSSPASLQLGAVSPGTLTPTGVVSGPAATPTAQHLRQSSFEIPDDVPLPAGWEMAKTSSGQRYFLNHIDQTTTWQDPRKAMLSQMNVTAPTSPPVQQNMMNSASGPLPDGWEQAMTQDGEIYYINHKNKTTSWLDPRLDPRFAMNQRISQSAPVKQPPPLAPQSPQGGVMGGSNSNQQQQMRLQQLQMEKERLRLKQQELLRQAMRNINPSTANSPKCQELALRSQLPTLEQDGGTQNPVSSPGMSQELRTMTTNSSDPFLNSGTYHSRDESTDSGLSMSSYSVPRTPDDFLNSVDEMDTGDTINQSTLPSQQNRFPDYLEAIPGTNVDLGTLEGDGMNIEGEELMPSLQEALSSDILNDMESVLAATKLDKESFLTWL

Target: T1, transcription factor P73 (human (endogenous in HPMEC)) (UniProt O15350)
T1 sequence: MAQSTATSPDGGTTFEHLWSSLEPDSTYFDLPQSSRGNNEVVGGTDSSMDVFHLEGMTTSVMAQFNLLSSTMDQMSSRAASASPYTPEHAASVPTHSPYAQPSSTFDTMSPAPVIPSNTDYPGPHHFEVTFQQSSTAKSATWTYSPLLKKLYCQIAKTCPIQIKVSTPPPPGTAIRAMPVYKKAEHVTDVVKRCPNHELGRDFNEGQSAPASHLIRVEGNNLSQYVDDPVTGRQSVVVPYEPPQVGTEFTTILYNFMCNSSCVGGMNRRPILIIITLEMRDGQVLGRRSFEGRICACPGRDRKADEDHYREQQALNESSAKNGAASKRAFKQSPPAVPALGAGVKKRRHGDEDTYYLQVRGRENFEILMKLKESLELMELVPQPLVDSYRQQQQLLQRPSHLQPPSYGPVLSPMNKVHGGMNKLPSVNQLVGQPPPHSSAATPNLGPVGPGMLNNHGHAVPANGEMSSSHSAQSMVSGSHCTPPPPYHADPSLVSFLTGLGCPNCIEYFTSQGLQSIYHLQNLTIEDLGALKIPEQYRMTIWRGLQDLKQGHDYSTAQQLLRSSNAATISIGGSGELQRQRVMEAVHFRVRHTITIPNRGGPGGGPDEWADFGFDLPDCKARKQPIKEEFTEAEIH
Experiment: co-IP; HPMEC lysed in RIPA+PMSF with protease inhibitor cocktail; extracts incubated overnight with P73 antibody, 2 h with protein A agarose beads, washed three times; blot with anti-phospho-YAP (Y357); cells stimulated with LPS and CHX for the indicated times or untreated

- binding: binds
Substance: Yes-associated protein phosphorylated on Y357 (from UniProt P46937 1-504)
